No constants are given. Whether binding was seen depends on the method and setting. Binding seen in cells or lysates may run through a third protein. These calls come from enrichment with a bait or labelling near it, and not all partners need be listed. Tags and fused reporters may be left off the sequences shown.

The chains behind the UniProt entries cited, without tags or fusion partners.
UniProt P63104: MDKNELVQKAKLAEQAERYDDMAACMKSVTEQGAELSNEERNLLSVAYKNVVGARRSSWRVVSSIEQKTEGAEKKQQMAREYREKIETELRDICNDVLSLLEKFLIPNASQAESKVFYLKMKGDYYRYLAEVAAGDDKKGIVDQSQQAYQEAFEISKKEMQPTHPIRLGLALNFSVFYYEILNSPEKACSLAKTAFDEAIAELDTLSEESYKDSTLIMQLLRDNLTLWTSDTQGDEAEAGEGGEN
UniProt Q15032: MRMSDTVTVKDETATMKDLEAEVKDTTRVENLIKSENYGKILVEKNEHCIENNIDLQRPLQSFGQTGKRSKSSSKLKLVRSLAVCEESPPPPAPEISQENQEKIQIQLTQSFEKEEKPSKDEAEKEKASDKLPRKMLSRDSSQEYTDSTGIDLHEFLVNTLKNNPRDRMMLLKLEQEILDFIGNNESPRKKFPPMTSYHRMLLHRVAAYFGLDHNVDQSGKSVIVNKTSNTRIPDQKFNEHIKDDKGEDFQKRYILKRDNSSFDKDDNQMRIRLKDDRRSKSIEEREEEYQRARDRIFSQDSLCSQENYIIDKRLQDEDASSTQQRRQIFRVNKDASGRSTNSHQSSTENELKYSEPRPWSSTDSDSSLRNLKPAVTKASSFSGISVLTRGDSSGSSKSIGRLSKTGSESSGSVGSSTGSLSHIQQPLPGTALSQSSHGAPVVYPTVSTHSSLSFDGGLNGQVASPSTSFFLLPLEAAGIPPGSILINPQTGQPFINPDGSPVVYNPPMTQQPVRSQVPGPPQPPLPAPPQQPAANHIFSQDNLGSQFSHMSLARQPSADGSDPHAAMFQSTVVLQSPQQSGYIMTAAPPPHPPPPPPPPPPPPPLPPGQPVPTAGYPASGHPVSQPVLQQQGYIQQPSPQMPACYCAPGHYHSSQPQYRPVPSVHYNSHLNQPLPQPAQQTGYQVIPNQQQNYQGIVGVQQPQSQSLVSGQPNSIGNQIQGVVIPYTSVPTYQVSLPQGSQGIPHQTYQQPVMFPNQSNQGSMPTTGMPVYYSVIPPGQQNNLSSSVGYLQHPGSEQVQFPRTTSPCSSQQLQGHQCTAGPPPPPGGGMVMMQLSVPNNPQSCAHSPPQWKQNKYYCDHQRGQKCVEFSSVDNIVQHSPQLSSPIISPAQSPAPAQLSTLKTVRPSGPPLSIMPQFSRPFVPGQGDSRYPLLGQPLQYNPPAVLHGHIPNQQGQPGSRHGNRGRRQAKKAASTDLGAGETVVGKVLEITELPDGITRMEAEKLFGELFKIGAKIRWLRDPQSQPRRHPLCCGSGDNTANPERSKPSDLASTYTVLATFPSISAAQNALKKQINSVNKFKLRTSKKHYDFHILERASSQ

For this assay, the target named is T1, FLAG-tagged ARPP21 (mouse), expressed in HEK-293T cells (mouse) (UniProt Q9DCB4).
T1 sequence: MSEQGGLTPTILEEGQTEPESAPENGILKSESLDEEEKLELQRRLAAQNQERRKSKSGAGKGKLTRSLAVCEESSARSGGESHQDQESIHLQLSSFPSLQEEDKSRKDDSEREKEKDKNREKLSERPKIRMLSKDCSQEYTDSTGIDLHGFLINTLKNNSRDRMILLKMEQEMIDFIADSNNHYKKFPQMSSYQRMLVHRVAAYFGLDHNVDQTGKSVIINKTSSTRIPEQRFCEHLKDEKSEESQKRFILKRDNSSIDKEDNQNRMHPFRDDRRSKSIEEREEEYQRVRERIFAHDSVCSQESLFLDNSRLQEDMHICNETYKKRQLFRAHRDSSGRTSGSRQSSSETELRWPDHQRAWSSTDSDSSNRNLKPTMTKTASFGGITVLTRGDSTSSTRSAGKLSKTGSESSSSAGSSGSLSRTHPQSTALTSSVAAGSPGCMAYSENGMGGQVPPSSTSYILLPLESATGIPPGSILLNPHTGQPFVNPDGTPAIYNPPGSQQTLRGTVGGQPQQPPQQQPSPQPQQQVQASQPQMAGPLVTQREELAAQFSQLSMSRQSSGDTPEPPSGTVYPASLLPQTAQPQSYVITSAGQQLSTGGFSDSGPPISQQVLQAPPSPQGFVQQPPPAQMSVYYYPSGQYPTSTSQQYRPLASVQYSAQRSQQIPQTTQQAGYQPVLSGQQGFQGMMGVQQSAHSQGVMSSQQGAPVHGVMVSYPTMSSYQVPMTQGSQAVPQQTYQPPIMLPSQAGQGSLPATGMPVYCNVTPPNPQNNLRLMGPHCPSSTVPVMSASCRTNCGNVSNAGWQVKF
As to the kind of experiment: affinity purification with mass spectrometry; FLAG-tagged mouse ARPP21 or R3HDM1 immunoprecipitated from transfected HEK-293T lysates after RNase digestion; interactors identified by LC-MS/MS; compared with mock-transfected cells.
Take “14-3-3-ζ, endogenous HEK-293T protein detected by MS (from UniProt P63104 1-245)”: the binding result was “binds”.

As to “R3HDM1, endogenous HEK-293T protein (from UniProt Q15032 1-1099)”, the binding entry is on record as “binds”.

Take “eIF4A, endogenous HEK-293T protein detected by MS (human (endogenous in HEK-293T))”: the binding result was “binds”.

As to “eIF4G, endogenous HEK-293T protein detected by MS (human (endogenous in HEK-293T))”, the binding result is reported as “binds”.

The values are drawn from paper PMC5964322.
